Experimental data reported in PubChem BioAssay AID1487 (National Center for Advancing Translational Sciences (NCATS), 2009).
This is one part of the list. Shown are side measurements of this screen, not its main read-out; they come without a call. Most of these compounds were active or inconclusive in the main read-out, so they are no random draw. Potencies come from curve fits of mixed quality, noted in brackets.

Assay: qHTS Assay for Modulators of Lamin A Splicing
Conditions: HeLa LMNA splicing GFP/RFP minigene ratio, 48 h
How it was run: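 Read-out is the ratio of GFP to DsRed2 object intensity, acquired by 488 nm laser-scanning cytometry on HeLa lamin A-EGFP minigene reporter cells. Compound incubation 48 hrs at 37 °C in Opti-MEM with 2% FBS; DMSO 0.5% final.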

[1] = measured here: RFP viability control channel
[2] = measured here: GFP splicing reporter channel

Compound	AC50 [1]	AC50 [2]
CCOC(=O)c1c(C)[nH]c(C(=O)C(C)Cl)c1C (centres undefined)	5.01 µM [rising, full curve, poor fit]	–
Cc1ccc(S(=O)(=O)CCc2nc3ccccc3n2CCC#N)cc1	11.2 µM [rising, partial curve]	–
CCCCN(C)C(=O)C(Cc1ccccc1)NS(=O)(=O)c1ccc2c(c1)CCC(=O)N2 (centres undefined)	25.1 µM [falling, partial curve]	25.1 µM [falling, single point]
CCOc1ccc2[nH]c(=O)c(CN(Cc3cccs3)Cc3nnnn3C(C)(C)C)cc2c1	15.8 µM [rising, single point]	15.8 µM [rising, partial curve, poor fit]
c1cncc(-c2nnc(-c3cccnc3)nn2)c1	35.5 µM [rising, single point]	–
Cc1cccc(N2CCN(C(=O)C3CCN(S(=O)(=O)c4cccc5nsnc45)CC3)CC2C)c1 (centres undefined)	10 µM [rising, partial curve]	6.31 µM [rising, partial curve, poor fit]
CN(C)c1nccc(N(Cc2ccccc2)Cc2ccccc2)c1C#N	15.8 µM [falling, single point]	–
COc1cccc(C(=O)NNC(=O)Cc2cccs2)c1	–	0.447 µM [rising, single point]
Cc1ccc(NC(=O)Nc2ccc3nc(N4CCN(C)CC4)cc(C)c3c2)cc1C	25.1 µM [falling, single point]	15.8 µM [falling, partial curve]
Cc1ccc(-n2nnnc2-c2cnn(-c3cccc(F)c3)c2C(F)(F)F)cc1	22.4 µM [rising, single point]	20 µM [rising, single point]
CCOc1ccc(CC(=O)OCn2nnc3ccccc3c2=O)cc1	–	3.16 µM [rising, partial curve, poor fit]
COc1ccc(S(=O)(=O)n2nc(-c3cc(OC)c(OC)c(OC)c3)cc2N)cc1OC	15.8 µM [rising, single point]	–
Cc1ccccc1NC(=S)N1CCN(C(=O)c2ccco2)CC1	0.891 µM [rising, full curve, poor fit]	–
CCc1nnc(NC(=O)c2ccc(N(C)S(=O)(=O)c3ccccc3)cc2)s1	11.2 µM [rising, partial curve]	–
COc1ccc(-c2n[nH]c(C)c2-c2ccc(Cl)cc2)c(O)c1OC	31.6 µM [rising, single point]	–
Cn1nnnc1SCC(=O)N1CCc2ccccc2C1	0.794 µM [rising, full curve, poor fit]	–
Cn1nc(C(F)(F)F)c(-c2ccccc2)c1NC(=O)c1cccnc1	35.5 µM [falling, single point]	–
CCOC(=O)c1cccc2c(=O)c(C(=O)c3ccc(Cl)cc3)c(C(=O)OC)[nH]c12	35.5 µM [rising, single point]	–

Compound	AC50 [1]	AC50 [2]
C=CCOC(=O)C1=C(C)NC(C)=C(C(=O)OCC=C)C1/C=C/c1ccccc1	35.5 µM [falling, partial curve, poor fit]	35.5 µM [falling, partial curve, poor fit]
O=C(NCc1ccc(Cl)cc1)C1CCN(S(=O)(=O)c2ccc3c(c2)CCCN3C(=O)C2CCC2)CC1	0.562 µM [falling, single point]	–
CC(C)(C)c1ccc(S(=O)(=O)N2CCN(C(=O)c3cc(-c4ccc(Br)cc4)n[nH]3)CC2)cc1	10 µM [falling, partial curve, poor fit]	12.6 µM [falling, single point]
CC(C)CC(NC(=O)CCl)c1ccccc1 (centres undefined)	35.5 µM [rising, single point]	–
Cc1ccccc1C(=O)c1cccn1CC(=O)NCCN1CCN(c2cccc(C)c2C)CC1	14.1 µM [rising, partial curve]	–
COc1ccc(C(=O)/C=C/c2cc(OC)c(O)c(OC)c2)c(F)c1	31.6 µM [falling, single point]	35.5 µM [falling, partial curve]
CCOP(=O)(OCC)c1nc(-c2ccc(Cl)cc2Cl)oc1N1CCOCC1	6.31 µM [falling, partial curve, poor fit]	2 µM [falling, partial curve]
Cc1ccc(/C(C#N)=C\c2ccc(N3CCOCC3)o2)cc1	35.5 µM [falling, single point]	35.5 µM [falling, single point]
COc1ccc(CNC(=S)Nc2ccccc2-c2ccccc2)cc1	6.31 µM [falling, single point]	–
CCN1c2ccccc2N(C)C1(C)c1ccccc1 (centres undefined)	7.08 µM [rising, full curve, poor fit]	–
CCOC(=O)N1CCC(N2C(=O)c3ccccc3C2Nc2ccc3c(C)cc(=O)oc3c2)CC1 (centres undefined)	17.8 µM [rising, partial curve, poor fit]	–
CN(C)S(=O)(=O)c1cccc(NC(=O)COC(=O)C2(c3ccccc3F)CCCC2)c1	11.2 µM [rising, partial curve]	–
COc1ccc(C(=O)CCN2CCCCCC2)cc1	0.224 µM [falling, full curve, poor fit]	–
O=C1CC(c2ccco2)CC(O)=C1C=Nc1cc(Cl)ccc1O (centres undefined)	5.62 µM [rising, partial curve]	–
CCOc1ccc(-c2nnn(CC(=O)NCCc3c[nH]c4ccccc34)n2)cc1	35.5 µM [rising, single point]	–
COc1ccc(-c2nnc(SCC(=O)NCc3ccccc3)nc2-c2ccc(OC)c(OC)c2)cc1OC	17.8 µM [rising, partial curve]	20 µM [rising, partial curve]
O=C(Nc1ccccc1)c1cc2ccccc2[nH]1	35.5 µM [rising, single point]	31.6 µM [rising, single point]
CCc1nc(C)cn1S(=O)(=O)c1cc([N+](=O)[O-])ccc1Cl	0.355 µM [falling, partial curve]	0.0708 µM [falling, partial curve]

One compound at a time, from the list above:
COc1ccc(CNC(=S)Nc2ccccc2-c2ccccc2)cc1 in the list: AC50 [1]: 6.31 µM [falling, single point]
CN(C)S(=O)(=O)c1cccc(NC(=O)COC(=O)C2(c3ccccc3F)CCCC2)c1 in the list: AC50 [1]: 11.2 µM [rising, partial curve]
